Data from PubChem BioAssay AID330 (DTP/NCI, 2004).
The list shows only some results of the screen, not a fair sample: it is rich in T/C values a quarter to a half above the control, in often repeated tests (any T/C) and in doses without a T/C. Other doses and runs of a compound stand elsewhere. T/C: endpoint of the treated group in % of that of the vehicle group. Some entries give survivors of the animals treated and no T/C: the source holds a T/C of zero for them, seemingly a mark for toxic or unscored doses. Some survivor counts are full or nearly so, which does not show that the dose was tolerated: the source hardly ever lists a survival T/C far under the control, and the zero likely stands for such cases as well. Counts of survivors are from the toxicity check (mostly the fifth day) where no day follows; animals may have died later. Schedule codes are those of the source, taken here to give the interval after Q, in days (D) or hours (H), and the number of doses after X.

System: P388 leukemia ip, CD2F1 mice, survival T/C
Test: NCI In Vivo Anticancer Drug Screen. Data for tumor model P388 Leukemia (intraperitoneal) in CD2F1 (CDF1) mice
Details: T/C endpoint: median survival time, schedule: Q01DX005 (ip), higher T/C = longer survival

Compound | survivor count (dose: 60.0 mg/kg/injection, vehicle: Klucel + Tween-80) | survivor count (dose: 120.0 mg/kg/injection, vehicle: Klucel + Tween-80) | survivor count (dose: 240.0 mg/kg/injection, vehicle: Klucel + Tween-80) | survivor count (dose: 12.5 mg/kg/injection, vehicle: saline with Tween-80) | survivor count (dose: 25.0 mg/kg/injection, vehicle: saline with Tween-80) | survivor count (dose: 50.0 mg/kg/injection, vehicle: saline with Tween-80) | survivor count (dose: 100.0 mg/kg/injection, vehicle: saline with Tween-80) | survivor count (dose: 200.0 mg/kg/injection, vehicle: saline with Tween-80)
N#CC1=CN=C2C=CC=C3N=C(C(Cl)(Cl)Cl)N=C1N32 | 6 of 6 | 1 of 6 | 0 of 6 | – | – | – | – | –
CN(C)c1ccc(C2(c3ccc(N(C)C)cc3)NNC(=O)c3cc(N(C)C)ccc32)cc1 | – | – | – | 6 of 6 | 6 of 6 | 6 of 6 | 6 of 6 | 6 of 6
